According to publication doi:10.1101/137844:
No constants are given. Whether binding was seen depends on the method and setting. Some entries that bind do so weakly or less than the wild type.

T1: RCD1 WWE--- (amino acids 1-265) (Arabidopsis) (UniProt Q8RY59)
T1 sequence: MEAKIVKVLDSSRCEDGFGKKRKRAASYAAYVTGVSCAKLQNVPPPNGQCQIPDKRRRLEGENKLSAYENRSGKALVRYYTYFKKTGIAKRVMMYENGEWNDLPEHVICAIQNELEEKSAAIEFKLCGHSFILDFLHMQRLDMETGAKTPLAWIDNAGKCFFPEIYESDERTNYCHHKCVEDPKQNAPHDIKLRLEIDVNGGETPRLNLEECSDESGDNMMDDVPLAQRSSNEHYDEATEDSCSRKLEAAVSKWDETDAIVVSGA

T2: SRO1 WWE--- (amino acids 1-262) (Arabidopsis) (UniProt O82289)
T2 sequence: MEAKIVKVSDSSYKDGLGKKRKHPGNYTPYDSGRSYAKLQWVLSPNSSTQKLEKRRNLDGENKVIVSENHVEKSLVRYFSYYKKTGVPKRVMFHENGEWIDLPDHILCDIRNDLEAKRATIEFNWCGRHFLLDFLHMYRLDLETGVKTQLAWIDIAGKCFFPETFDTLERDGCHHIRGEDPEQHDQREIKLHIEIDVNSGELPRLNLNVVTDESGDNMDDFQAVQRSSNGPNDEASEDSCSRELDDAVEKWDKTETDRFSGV

B1: SRO1 WWE--- (amino acids 1-262) (domain or fragment, UniProt O82289 1-262)
chain: T2 sequence
B2: RCD1 WWE--- (amino acids 1-265) (domain or fragment, UniProt Q8RY59 1-265)
chain: T1 sequence

How the values were obtained:
[1] = biological target: T1, RCD1 WWE--- (amino acids 1-265) (Arabidopsis); assay: two-hybrid
[2] = biological target: T2, SRO1 WWE--- (amino acids 1-262) (Arabidopsis); assay: two-hybrid

binding [1] | binding [2] | Binder
binds | binds | B1
– | binds | B2
